Measured values from PubChem BioAssay AID493014 (National Center for Advancing Translational Sciences (NCATS), 2011).
The other results are listed elsewhere or left out. Further columns of the screen follow, without active or inactive calls. Most of these compounds were active or inconclusive in the main read-out, so they are no random draw. The note in brackets gives the kind of curve behind each potency; many fits are weak.

Assay: qHTS Assay to Find Inhibitors of Chronic Active B-Cell Receptor Signaling
Conditions: ABC-DLBCL IkBa-CBG/CBR reporter, luminescence ratio (green luciferase fused to IkBa over red control in TMD8 lymphoma cells), 4 h
How it was run: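 TMD8 ABC-DLBCL cells carrying doxycycline-inducible green luciferase fused to IkappaBalpha plus unfused red luciferase were exposed to compounds (up to 46 uM) for 4 hrs at 37C. Activity came from the overlap-corrected green/red luminescence ratio.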

[1] = measured here: CBR red luminescence, cell number
[2] = measured here: IkBa-CBG green luminescence

SMILES | AC50 [1] | AC50 [2]
CC1(C)C(c2cccs2)=[N+]([O-])C2(CCCCC2=O)N1O (configuration not stated) | 17.8 µM [falling, partial curve, poor fit] | 
COc1ccc(-c2cc(-c3ccccc3)nc(Cl)n2)cc1OC | 6.31 µM [falling, partial curve, poor fit] | 
O=C(Nc1ccc(N2CCN(C(=O)c3ccc(Cl)cc3)CC2)cc1)c1ccc2c(c1)OCCO2 | 1.84 µM [falling, partial curve, poor fit] | 
COc1ccc(/C=N/NC(=O)c2ccccc2O)cc1COc1ccccn1 | 7.94 µM [falling, partial curve, poor fit] | 
O=C(NCc1ccco1)C1CC(=O)N(c2ccc(F)cc2)C1 (configuration not stated) | 5.17 µM [rising, full curve] | 
Cc1cc(Nc2nc(Cl)c(Cl)cc2Cl)n(-c2ccccc2)n1 | 14.6 µM [rising, single point] | 
COc1cc(/C=N/NC(=S)Nc2cccnc2)cc(OC)c1OC | 12.6 µM [falling, partial curve] | 7.94 µM [falling, partial curve]
NS(=O)(=O)c1cc(C(=O)NCC2CCCCC2)ccc1Cl | 2.82 µM [rising, full curve, poor fit] | 
O=C(CCn1c2c(c3ccccc31)CCCC2)NNC(=O)c1ccc([N+](=O)[O-])cc1 | 20.6 µM [falling, single point] | 
COc1ccc(C2C(C(=O)OCC(=O)NC(C)(C)C)CCC(=O)N2c2ccc(C)cc2)cc1OC (configuration not stated) | 0.00461 µM [rising, full curve, poor fit] | 
CC(=O)/C(C#N)=C1\NC(=O)C(Cc2ccc(C)c(Cl)c2)S1 (configuration not stated) | 8.91 µM [rising, partial curve, poor fit] | 
COc1ccc(OCc2ccc(/C=N\NC(=O)c3sccc3C)o2)cc1 | 6.31 µM [falling, full curve] | 
CC(=O)Nc1ccc(Oc2ncccn2)c(Cl)c1 | 2.06 µM [rising, partial curve, poor fit] | 
CC(=O)Oc1cccc(N2C(=O)c3cccc4c([N+](=O)[O-])ccc(c34)C2=O)c1 | 20 µM [rising, partial curve, poor fit] | 
O=C1NC(=O)c2cc(NC(=O)C3CCCCC3)ccc21 | 16.4 µM [falling, single point] | 
O=C1Nc2ccc(Cl)cc2/C1=C/C1CC=CCC1 (configuration not stated) | 29.1 µM [falling, single point] | 18.4 µM [falling, partial curve, poor fit]
CCN1CCN(c2nc3sc4c(c3c3ncnn23)CC(C)CC4)CC1 (configuration not stated) | 35.5 µM [rising, single point] | 
CC1(C)OC(c2ccccc2)=C/C(=C/C=C2C(=O)c3ccccc3C2=O)O1 | 15.8 µM [rising, partial curve] | 
Cc1ccc(C(=O)O/N=C/c2c(C)nn(C)c2Cl)cc1 | 11.2 µM [rising, partial curve] | 
O=c1[nH]c(CN2CCN(c3ccccc3O)CC2)nc2scc(-c3ccccc3Cl)c12 | 35.5 µM [falling, single point] | 

Of the compounds above, seven contain sulfur:
SMILES | AC50 [1] | AC50 [2]
CC1(C)C(c2cccs2)=[N+]([O-])C2(CCCCC2=O)N1O (configuration not stated) | 17.8 µM [falling, partial curve, poor fit] | 
COc1cc(/C=N/NC(=S)Nc2cccnc2)cc(OC)c1OC | 12.6 µM [falling, partial curve] | 7.94 µM [falling, partial curve]
NS(=O)(=O)c1cc(C(=O)NCC2CCCCC2)ccc1Cl | 2.82 µM [rising, full curve, poor fit] | 
CC(=O)/C(C#N)=C1\NC(=O)C(Cc2ccc(C)c(Cl)c2)S1 (configuration not stated) | 8.91 µM [rising, partial curve, poor fit] | 
COc1ccc(OCc2ccc(/C=N\NC(=O)c3sccc3C)o2)cc1 | 6.31 µM [falling, full curve] | 
CCN1CCN(c2nc3sc4c(c3c3ncnn23)CC(C)CC4)CC1 (configuration not stated) | 35.5 µM [rising, single point] | 
O=c1[nH]c(CN2CCN(c3ccccc3O)CC2)nc2scc(-c3ccccc3Cl)c12 | 35.5 µM [falling, single point] | 

(listing goes on)

SMILES | AC50 [1] | AC50 [2]
COc1ccccc1NNC(=O)c1cc(C(C)(C)C)nn1Cc1ccccc1 | 0.708 µM [falling, full curve, poor fit] | 
Cc1cc(C)n(-c2nc(-c3ccc(Cl)c(Cl)c3)cs2)n1 | 4.47 µM [rising, partial curve, poor fit] | 
CCCCOc1ccccc1-c1ccccc1CN1[C@@H](C(C)C)COCCS1(=O)=O | 16.4 µM [falling, partial curve] | 
Cc1occc1C(=O)N/N=C/c1ccc(Br)s1 | 10 µM [falling, partial curve] | 
CN(c1ccccc1)c1nc(N)c([N+](=O)[O-])c(N2CCCCCC2)n1 | 35.5 µM [rising, single point] | 
O=S(=O)(Cc1ccccc1)N1CCc2ccccc2C1 | 4.47 µM [rising, partial curve, poor fit] | 
O=c1ccnc(SCc2ccccc2Cl)[nH]1 | 10.3 µM [rising, partial curve, poor fit] | 
COc1ccc(/C=N/N2CCOCC2)cc1Cn1nc(C)c([N+](=O)[O-])c1C | 7.08 µM [rising, full curve, poor fit] | 
O=C(Cn1c(=O)n(Cc2ccco2)c(=O)c2c3c(sc21)CCCC3)Nc1ccccc1 | 1.16 µM [falling, full curve, poor fit] | 
CN(c1ccccc1)c1nc(N)c([N+](=O)[O-])c(NCc2ccccc2)n1 | 3.16 µM [rising, full curve] | 
O=c1c(-c2ccc(O)cc2)coc2c(C3O[C@H](CO)[C@@H](O)[C@H](O)[C@H]3O)c(O)ccc12 (some centres not stated) | 0.631 µM [rising, full curve, poor fit] | 
Oc1ccc(-c2csc(Nc3ncccn3)n2)c(O)c1 | 14.1 µM [falling, single point] | 
Cc1ccc(NC(=O)C2C3C=CC4(CN(Cc5cccnc5)C(=O)C24)O3)cc1 (configuration not stated) | 6.51 µM [rising, full curve] | 
O=C(NCc1ccncc1)Nc1cccc([N+](=O)[O-])c1 | 14.1 µM [rising, single point] | 
CC(C)CC1Nc2ncnc(N3CCCCC3)c2N(Cc2ccccc2)C1=O (configuration not stated) | 20.6 µM [falling, single point] | 
CN1C(=S)SC(/[N+]([O-])=C/c2ccc(Cl)cc2)C1(C)C (configuration not stated) | 12.6 µM [rising, partial curve, poor fit] | 
O=c1c2cc(NC(=S)NC3CCCC3)ccc2nc2n1CCCCC2 | 12.6 µM [falling, single point] | 
Cc1cc2nc(/N=C(\N)NC(=O)C(C)C)nc(C)c2cc1C | 1.12 µM [rising, partial curve, poor fit] | 
CC(C(=O)Nc1ccc(F)cc1Cl)N1CCN(S(=O)(=O)c2cccs2)CC1 (configuration not stated) | 0.00461 µM [rising, full curve, poor fit] | 
C/C(=N\NC(=O)c1cccnc1)c1ccc(Br)cc1 | 10 µM [falling, partial curve, poor fit] | 
